Assay results taken from patent US20050069918A1.
No constants are given. Whether binding was seen depends on the method and setting. In cells and extracts the contact can be indirect. Some entries that bind do so weakly or less than the wild type.

Chains of the proteins cited; added tags and fusions are not shown. Lines headed by an entry give the natural chain unless they say otherwise; changes in a name come on top. Residues count along the entry.
UniProt P05412, residues 1-79: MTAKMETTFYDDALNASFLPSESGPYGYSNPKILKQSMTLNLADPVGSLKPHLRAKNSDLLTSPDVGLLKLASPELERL
UniProt Q92905: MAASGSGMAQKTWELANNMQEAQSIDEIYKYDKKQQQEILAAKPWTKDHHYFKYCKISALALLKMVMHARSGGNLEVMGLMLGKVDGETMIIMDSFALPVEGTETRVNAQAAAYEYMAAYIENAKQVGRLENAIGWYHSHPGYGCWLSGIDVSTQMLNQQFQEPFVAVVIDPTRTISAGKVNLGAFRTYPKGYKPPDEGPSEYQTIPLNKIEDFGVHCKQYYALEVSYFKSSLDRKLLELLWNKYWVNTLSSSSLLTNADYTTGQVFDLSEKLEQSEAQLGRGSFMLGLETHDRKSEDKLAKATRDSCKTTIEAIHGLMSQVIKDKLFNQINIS

Key:
[1] = molecular target: GST-p27 fusion protein [GST: P08515]; experiment: GST pull-down, 35S-labelled JAB1 on immobilized GST-p27
[2] = molecular target: GST-c-Jun (1-79 amino acids) fusion protein (UniProt P05412); experiment: GST pull-down, 35S-labelled JAB1 on immobilized GST-c-Jun (1-79)
[3] = molecular target: GST-c-Jun (1-79 amino acids) fusion protein (UniProt P05412); experiment: GST pull-down, 35S-labelled JAB1 on immobilized GST-c-Jun (1-79) (figure legend)
[4] = molecular target: GST-p27 fusion protein [GST: P08515]; experiment: GST pull-down, 35S-labelled JAB1 on immobilized GST-p27 (figure legend)

binding [1]: binds | binding [2]: binds | binding [3]: binds | binding [4]: binds
Substance: JAB1 full length (FL), in vitro translated and [35S]-methionine labelled (from UniProt Q92905 2-334)
